Measured values from PMC7819943, “Rice protein-binding microarrays: a tool to detect cis-acting elements near promoter regions in rice”.
The other results are listed elsewhere or left out.

Sequences of proteins named here, by UniProt entry; tags and fusion partners are left off.
UniProt Q0JBA9, entry or part of it: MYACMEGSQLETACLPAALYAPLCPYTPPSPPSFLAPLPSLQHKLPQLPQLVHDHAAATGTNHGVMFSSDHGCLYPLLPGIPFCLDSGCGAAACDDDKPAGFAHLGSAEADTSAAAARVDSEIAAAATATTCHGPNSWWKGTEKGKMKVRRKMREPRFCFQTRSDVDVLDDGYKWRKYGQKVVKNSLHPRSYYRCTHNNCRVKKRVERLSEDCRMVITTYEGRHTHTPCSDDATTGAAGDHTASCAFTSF

biological target: OsWRKY34 (Oryza sativa, UniProt Q0JBA9 1-250); test: protein-binding microarray (RPBM); PBS, 2% BSA, 51.3 ng/ul salmon testes DNA, 50 uM zinc acetate, 200 nM TF, 25 C, 1 h; high values mean tight binding; conditions: protein: recombinant; tags: N-terminal polyhistidine and DsRed monomer fusion (pET32a); label: CyDye5-dUTP incorporated in the synthesized complementary strand; 3' TTTTT single-stranded linker to array surface; dsDNA, one strand shown
Procedure, shortened: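 The binding signal for each feature is its fluorescence intensity in arbitrary units. An Axon 4000B scanner was used to read a custom Agilent array that had been made double-stranded with Cy5-dUTP primer extension, blocked with 2% BSA, incubated at 25 °C for 1 h with 200 nM protein in PBS, 2% BSA, salmon testes DNA and 50 µM zinc acetate, and washed. The protein was an N-terminal polyhistidine–DsRed transcription factor fusion from E. coli BL21-CodonPlus, purified on Ni–NTA.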

Sequence | binding signal
CATCTCAACCAATTACAACCATCCCATTTAATTCCATCCTCGGAGTCACCTAGTGCAG | 8650 fluorescence intensity (a.u.)
TCTTCTCCACTTACTTGTCCATCTTCTTCTCCTCCTCCTACGGAGTCACCTAGTGCAG | 8780 fluorescence intensity (a.u.)
TAAGTATGCACGGTCACAGCTGTTGTTTGTCGAGCCAGCACGGAGTCACCTAGTGCAG | 9520 fluorescence intensity (a.u.)
ATCTCGTTATGGGTTATGGGCGTTATGGTATGATTAATTACGGAGTCACCTAGTGCAG | 12400 fluorescence intensity (a.u.)
GTTAGTTGTCACTGAACCCTACATTGTCATTTTCTTTTCACGGAGTCACCTAGTGCAG | 8870 fluorescence intensity (a.u.)
GAGTTTGTTCTGTTTTCGCCGGTAGATCTCCACGTTCCTTCGGAGTCACCTAGTGCAG | 8890 fluorescence intensity (a.u.)
ACTACTACTACTAGTATTTTCTTTGACTTTTCCTGCACCCCGGAGTCACCTAGTGCAG | 10500 fluorescence intensity (a.u.)
CGACTGGTGCTTTTATCTTCACAACTGCGCGTCTTCACTACGGAGTCACCTAGTGCAG | 13100 fluorescence intensity (a.u.)
ATCTGCATGTTCGCCCTTCTTCATACAATGTCTTGCTTGTCGGAGTCACCTAGTGCAG | 8060 fluorescence intensity (a.u.)
GCCCTACTCTACCCCTAGCCCTCCGCGCGGCTGCCGTCGACGGAGTCACCTAGTGCAG | 8970 fluorescence intensity (a.u.)
CACAGCGACCCACCACCCTTCTTTCTGCCATGCCTTACATCGGAGTCACCTAGTGCAG | 10100 fluorescence intensity (a.u.)
ACTTCTTTTCTCATGCACAGAGGCAGAACAGCCATGGCTGCGGAGTCACCTAGTGCAG | 8310 fluorescence intensity (a.u.)
ATGCTTCACCTCGTCGCCCTAAATTTATCACCCAGAGGCGCGGAGTCACCTAGTGCAG | 8100 fluorescence intensity (a.u.)
GTATGCATGCGGCTATAAACGTTATGTTTATGTTGTGTTTCGGAGTCACCTAGTGCAG | 9020 fluorescence intensity (a.u.)
TTCCTAGTGCCATCCATACCTTCTCTAAATTAATCCGATTCGGAGTCACCTAGTGCAG | 8480 fluorescence intensity (a.u.)
ACTCCGTATCCTGAACTTACTAGTATTAGTTTCCAGTTTTCGGAGTCACCTAGTGCAG | 8060 fluorescence intensity (a.u.)
ACAACGGTTTGTTATTGTCTTGTCGGCTTCTACAACACAACGGAGTCACCTAGTGCAG | 8600 fluorescence intensity (a.u.)
ATCCTACCTTACCTCTCTCTGGCAACCGGGTCCCACCTAACGGAGTCACCTAGTGCAG | 12100 fluorescence intensity (a.u.)
GTCTCGCGATTTCCATACAAACTGTGCAATTAGTTTTTTTCGGAGTCACCTAGTGCAG | 11200 fluorescence intensity (a.u.)
TGTTCCCCTTCTGCTATCTCAACCGTGTCTGTCTTATCATCGGAGTCACCTAGTGCAG | 9570 fluorescence intensity (a.u.)
ACATCAAAGCTTTCCTACACACACAACCTTCCAATGTTTCCGGAGTCACCTAGTGCAG | 9160 fluorescence intensity (a.u.)

Sequence | binding signal
GATGTTGTTTCCTTTCTTTGGTGGTTTGGTTTGGTTGGGTCGGAGTCACCTAGTGCAG | 29300 fluorescence intensity (a.u.)
ACCCACCTACCAAATTTATTTACTGTAGACGCAATTGACTCGGAGTCACCTAGTGCAG | 8770 fluorescence intensity (a.u.)
TTGATGTAGTATTCTTTTAAGGTTGGATGGTTGGATTTGACGGAGTCACCTAGTGCAG | 10000 fluorescence intensity (a.u.)
ATATTGTTTTGATATCATAAGTAGTTTTGACTTTTTTTTACGGAGTCACCTAGTGCAG | 11000 fluorescence intensity (a.u.)
GATGATGGGACGTGGGGTGGGATCGGAAGTAGGAAAGTTGCGGAGTCACCTAGTGCAG | 13400 fluorescence intensity (a.u.)
CACCGAGTTCCCCGCCCCAAACTCCGCCCCGCTCTCTCCGCGGAGTCACCTAGTGCAG | 8640 fluorescence intensity (a.u.)
CCCACCCGCCACCACCGCGCGCCGTCGACACTCGGCGACCCGGAGTCACCTAGTGCAG | 8910 fluorescence intensity (a.u.)
TGCCATCTCCTTCGCCATTGGAGCTCACCACACACTCGCTCGGAGTCACCTAGTGCAG | 9660 fluorescence intensity (a.u.)
TTCTGATTTCTGCCATTGATTATGATTTCAGCATGTTTTCCGGAGTCACCTAGTGCAG | 10200 fluorescence intensity (a.u.)
GAGTTCCGACGGAAACTGCCCTTATCATTTCCGATTCCGTCGGAGTCACCTAGTGCAG | 9820 fluorescence intensity (a.u.)
TGGTATATGTCATATCTGGTTTTAGATTTATTTTTTGTGACGGAGTCACCTAGTGCAG | 8890 fluorescence intensity (a.u.)
AAACTGGGCCATATCGGTTGGTTTTTGCTCTCTACGTCTCCGGAGTCACCTAGTGCAG | 9280 fluorescence intensity (a.u.)
TACGATCTCATCATGCCCCATCTGCAATAAGTCAATTCCGCGGAGTCACCTAGTGCAG | 8090 fluorescence intensity (a.u.)
GATTCCAAATTTCACAACAAGCATATAACTTTCACGAGACCGGAGTCACCTAGTGCAG | 8290 fluorescence intensity (a.u.)
TTTATACATATTCAGTGGTACTCTCTCTATGCCATAATATCGGAGTCACCTAGTGCAG | 8460 fluorescence intensity (a.u.)
TCCTTGTTTCTTTGTGGAAGCCTCTTCTGCTGCTGCCGTCCGGAGTCACCTAGTGCAG | 9850 fluorescence intensity (a.u.)
TTTTTGCAGCATCAATTGAAAGTTCATTAGTCCTCTTTGTCGGAGTCACCTAGTGCAG | 8120 fluorescence intensity (a.u.)
CCATGTGTAACACTATCATCATCAACCATGCAATCCATCTCGGAGTCACCTAGTGCAG | 8780 fluorescence intensity (a.u.)
GTATATTCAGGCCTGGTTTAGTCGCCCAAAATTTTTTTCCCGGAGTCACCTAGTGCAG | 11600 fluorescence intensity (a.u.)
CCGCCGAGTCACTGCTCTCGTTCTTATCCACACTGCCCGACGGAGTCACCTAGTGCAG | 9120 fluorescence intensity (a.u.)
CCCGGACTTTCTTCCCCTTGGGTCCAGTTGCACCTCTTCGCGGAGTCACCTAGTGCAG | 8780 fluorescence intensity (a.u.)

Sequence | binding signal
CCTCGCCATCACCGCCATTGCCGCCGCCGCCGCCGCCGCCCGGAGTCACCTAGTGCAG | 14100 fluorescence intensity (a.u.)
CCGGTCCGGTCACCGCCTGCCTCGTCGTCGCCGGCGCTGACGGAGTCACCTAGTGCAG | 9200 fluorescence intensity (a.u.)
CTCATCTCACCCCTTTCTTTGCCTTGTTGCTTTGGTTGGACGGAGTCACCTAGTGCAG | 9030 fluorescence intensity (a.u.)
TTTAATTCCGAATTTCTATTTTTTTTTCTTAATTGTATTTCGGAGTCACCTAGTGCAG | 8050 fluorescence intensity (a.u.)
CGAATTGAGGCCCAAATACTTGGGTGGGGTGGAGGGCCGACGGAGTCACCTAGTGCAG | 12300 fluorescence intensity (a.u.)
AACCTTCCATTTTGTGCTATCTTTTGTTCTTTTGTGTGCTCGGAGTCACCTAGTGCAG | 8610 fluorescence intensity (a.u.)
CTATTTAACCCCAACAACGCTCGTACCATCACGGCATCATCGGAGTCACCTAGTGCAG | 10300 fluorescence intensity (a.u.)
CGCACGCCGCACGCTGGCCACCCACCTCCACCTCCGCCGGCGGAGTCACCTAGTGCAG | 10800 fluorescence intensity (a.u.)
AAGTCCAAATAAACCATCACTCTTTTTGTTTGACTTTTTTCGGAGTCACCTAGTGCAG | 11400 fluorescence intensity (a.u.)
TTTTTTCAATATTGCTTATTTTTAATTTCGAATTCCTACTCGGAGTCACCTAGTGCAG | 10600 fluorescence intensity (a.u.)
TATAATTCATTTGGTTAATGTATCATTAACTTGTGTCAATCGGAGTCACCTAGTGCAG | 8080 fluorescence intensity (a.u.)
CTCTCTCTCTCTCTCTCTCATACCTAAAAGTTATTTTAATCGGAGTCACCTAGTGCAG | 8250 fluorescence intensity (a.u.)
CTACGGCACCTACTAACTCCTTGTCTGCTTCCGCGCGCCACGGAGTCACCTAGTGCAG | 10500 fluorescence intensity (a.u.)
AACTTACATTGTAAATACACTAAAATTACATATGTAATTTCGGAGTCACCTAGTGCAG | 9910 fluorescence intensity (a.u.)
AAGAGGAGAGATCATTGTTGACGGGTTATACCCGACCGCGCGGAGTCACCTAGTGCAG | 9020 fluorescence intensity (a.u.)
CGATGTGTGCTTTAACTTTCGGATCGATGCTTATTTATCACGGAGTCACCTAGTGCAG | 8380 fluorescence intensity (a.u.)
CCCAGCCTTCCCCTCACTGACAGCCCGGGCCCACCGCTCACGGAGTCACCTAGTGCAG | 8290 fluorescence intensity (a.u.)
CGTTTCATATTATAAGACTTTCTAGCATTGCCCATATTTACGGAGTCACCTAGTGCAG | 9360 fluorescence intensity (a.u.)
AAGAGAGAGAGAGATGGAGTGGCTGCTTTTGTTTCCTCCTCGGAGTCACCTAGTGCAG | 9090 fluorescence intensity (a.u.)
GGTACTTGTGGTCTTGAAGGTTGTGCTTTCCATCCAATTGCGGAGTCACCTAGTGCAG | 12900 fluorescence intensity (a.u.)
TCCATAGTCTTTGCGCTTTTTGCTTAGAGCAAGTTTAATACGGAGTCACCTAGTGCAG | 8390 fluorescence intensity (a.u.)

Sequence | binding signal
GGCACGTACACAGTCAGATCCACCTTGGCAAGCTATAATCCGGAGTCACCTAGTGCAG | 8530 fluorescence intensity (a.u.)
TGCAGGTTGCTCGGTTGTTTTGTGTAGTGTAGATGTGTGACGGAGTCACCTAGTGCAG | 10300 fluorescence intensity (a.u.)
ATCTGTATCTTTGTTTATTTTTTTTATTTTTCTCCCATTTCGGAGTCACCTAGTGCAG | 10600 fluorescence intensity (a.u.)
TGACGAGAGCGCACAACACATCCCACATACTGGCGCACACCGGAGTCACCTAGTGCAG | 8910 fluorescence intensity (a.u.)
TTCTTATTTGCAAGTATACTGTTTTGCTTTTCTCTCTAATCGGAGTCACCTAGTGCAG | 9690 fluorescence intensity (a.u.)
AGAGTTGTTTGATGTTATTTTGTCCTATCTCTAACAGATTCGGAGTCACCTAGTGCAG | 10900 fluorescence intensity (a.u.)
TTGTCAATCTGTTTCTATTCTGCTGTCTATGCTCTGCATTCGGAGTCACCTAGTGCAG | 9040 fluorescence intensity (a.u.)
GCTGCCTCCGCCTCGCGCCGTCGCCATCGTCGTCCCCGCCCGGAGTCACCTAGTGCAG | 9500 fluorescence intensity (a.u.)
TCTTCGTCAATTTATTCTTCTGAGTTGCTAACATGTAACCCGGAGTCACCTAGTGCAG | 10800 fluorescence intensity (a.u.)
CACCGTTGGTTCCTTTCACACCCGTCTACAAGTGTTCAGTCGGAGTCACCTAGTGCAG | 8660 fluorescence intensity (a.u.)
ACAACCCTTTCATTACCAGTCATCTCCTCCCACACTCAGCCGGAGTCACCTAGTGCAG | 11100 fluorescence intensity (a.u.)
ACTCATCAAGATCTATAACTTTTATTTGGGTCATTTCTTCCGGAGTCACCTAGTGCAG | 11900 fluorescence intensity (a.u.)
TGTTTGAGCATTGGTATCGTATGGATAGCTCATTAGTTTTCGGAGTCACCTAGTGCAG | 8100 fluorescence intensity (a.u.)
GTCTCGCCGCCGCTTCGTCGCCGCCGCCGCAGCATCAGCCCGGAGTCACCTAGTGCAG | 8180 fluorescence intensity (a.u.)
GGGGTTTTTGGGTGATGGCCAACGCCCTTGGCCTGCAGAACGGAGTCACCTAGTGCAG | 9040 fluorescence intensity (a.u.)
GTCGCCTGCAGCATCTCTCCTTGGCTTCTTCAACTTACGTCGGAGTCACCTAGTGCAG | 11900 fluorescence intensity (a.u.)
ATTTGGCTCTTCTGTTTTTTTTTTCGCTTTCTTTTTCTCGCGGAGTCACCTAGTGCAG | 9480 fluorescence intensity (a.u.)
AATCTGACCGTGACCTATTCTGTTGCCATCTCTATGCAAGCGGAGTCACCTAGTGCAG | 8520 fluorescence intensity (a.u.)
GAAATGTCAAATATTTGTTAAAAAGTCAACGGCGTCATACCGGAGTCACCTAGTGCAG | 11900 fluorescence intensity (a.u.)
ATAAATTGCACCATCATCTCTCGCTTCTTGTCTTCGCAACCGGAGTCACCTAGTGCAG | 11900 fluorescence intensity (a.u.)
ATTGCTGCCCGTATTCCTGTGAGATCGATATATATTGCTGCGGAGTCACCTAGTGCAG | 8380 fluorescence intensity (a.u.)
